{"source": "PubChem BioAssay AID1259254 (NCATS, 2017)", "purpose": "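Genome-wide screen for genes that prevent DNA re-replication in cancer cells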 (primary screen)", "cells": "human HCT116 colorectal cancer cells", "reagents": "single siRNA against human genes", "duration": "3 days", "detection": "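Imaged Hoechst DNA stain sorts each cell into a cycle phase by DNA amount; per plate, G2 fraction set to 0% for non-targeting and 100% for GMNN siRNA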", "direction": "G2 robust z-score and G2 cells, % of GMNN control: higher = more G2 cells, more excess DNA replication", "rule for the call": "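Active siRNAs have a G2 robust z of 5 or more median absolute deviations over the median, which in these data means about 38% or higher of GMNN control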", "note": "This is a random part of about 59,000 reagents. About 1,550 of all reagents (2.6%) were called active. 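G2 share is only a proxy for re-replication; each gene was hit by three separate siRNAs, and active genes were retested.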 Unmarked entries are inactive. Not all columns of the deposit are shown. Not stated in the record: the amount of reagent."}
{"Target gene":"LINC01011 (GeneID 401232)","PubChem SID":"SID160767201","G2 robust z-score":0.173,"G2 cells, % of GMNN control":4.19}
{"Target gene":"LINC01011 (GeneID 401232)","PubChem SID":"SID160767202","G2 robust z-score":-0.31,"G2 cells, % of GMNN control":0.787}
{"Target gene":"LINC01011 (GeneID 401232)","PubChem SID":"SID160767204","G2 robust z-score":-1.03,"G2 cells, % of GMNN control":-4.28}
{"Target gene":"MUC22 (GeneID 100507679)","PubChem SID":"SID160773168","G2 robust z-score":-0.562,"G2 cells, % of GMNN control":-0.986}
{"Target gene":"MUC22 (GeneID 100507679)","PubChem SID":"SID160773169","G2 robust z-score":-0.391,"G2 cells, % of GMNN control":0.215}
{"Target gene":"MUC22 (GeneID 100507679)","PubChem SID":"SID160773170","G2 robust z-score":-0.255,"G2 cells, % of GMNN control":1.17}
{"Target gene":"AKAP3 (GeneID 10566)","PubChem SID":"SID160728750","G2 robust z-score":-1.04,"G2 cells, % of GMNN control":-4.32}
{"Target gene":"AKAP3 (GeneID 10566)","PubChem SID":"SID160728751","G2 robust z-score":2.19,"G2 cells, % of GMNN control":18.3}
{"Target gene":"AKAP3 (GeneID 10566)","PubChem SID":"SID160728752","G2 robust z-score":-0.741,"G2 cells, % of GMNN control":-2.25}
{"Target gene":"SMUG1 (GeneID 23583)","PubChem SID":"SID160736607","G2 robust z-score":3.81,"G2 cells, % of GMNN control":29.8}
{"Target gene":"SMUG1 (GeneID 23583)","PubChem SID":"SID160736608","G2 robust z-score":-0.605,"G2 cells, % of GMNN control":-1.29}
{"Target gene":"SMUG1 (GeneID 23583)","PubChem SID":"SID160736609","G2 robust z-score":-0.468,"G2 cells, % of GMNN control":-0.324}
{"Target gene":"IL17B (GeneID 27190)","PubChem SID":"SID160738532","G2 robust z-score":0.193,"G2 cells, % of GMNN control":4.33}
{"Target gene":"IL17B (GeneID 27190)","PubChem SID":"SID160738533","G2 robust z-score":0.454,"G2 cells, % of GMNN control":6.16}
{"Target gene":"IL17B (GeneID 27190)","PubChem SID":"SID160738534","G2 robust z-score":1.6,"G2 cells, % of GMNN control":14.2}
{"Target gene":"BPIFB3 (GeneID 359710)","PubChem SID":"SID160765209","G2 robust z-score":4.03,"G2 cells, % of GMNN control":31.3}
{"Target gene":"BPIFB3 (GeneID 359710)","PubChem SID":"SID160765210","G2 robust z-score":-0.0768,"G2 cells, % of GMNN control":2.43}
{"Target gene":"BPIFB3 (GeneID 359710)","PubChem SID":"SID160765211","G2 robust z-score":-0.871,"G2 cells, % of GMNN control":-3.16}
